The supplement of paper PMC4604168 (melanoma cell lines)
The other results are listed elsewhere or left out. Repeats are few or missing, and single values can be far off.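 Cells were imaged in 1,536-well plates, and nuclei stained with an antibody against cleaved PARP were counted against all DNA-stained nuclei to give the apoptosis fraction. Screening doses were chosen to leave most cells alive, and resting and induced cleaved-PARP levels differ strongly between cell lines.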

Each compound was assayed on WM115 (assay: cleaved PARP positive nuclei fraction relative to DMSO control; melanoma cells; higher = more apoptosis). Settings: library dose: low library concentration; 72 h.

SMILES | cleaved PARP positive nuclei fraction
COc1ccc(C2=N[C@@H](c3ccc(Cl)cc3)[C@@H](c3ccc(Cl)cc3)N2C(=O)N2CCNC(=O)C2)c(OC(C)C)c1 [Nutlin-3] + COc1ccc2c(c1)CCC1C2CCC2(C)C(NCCCCCCN3C(=O)C=CC3=O)CCC12 [U73122] (first compound 0.1 µM, partner dose 0.4 µM) | 105%
CS(=O)(=O)c1ccc(C(=O)Nc2ccc(Cl)c(-c3ccccn3)c2)c(Cl)c1 [vismodegib] + Cc1cc(N2CCOCC2)cc2[nH]c(-c3c(NC[C@@H](O)c4cccc(Cl)c4)cc[nH]c3=O)nc12 [BMS536924] (first compound 1 µM, partner dose 0.2 µM) | 133%
CC1(C)CCC(c2ccc(Cl)cc2)=C(CN2CCN(c3ccc(C(=O)NS(=O)(=O)c4ccc(N[C@H](CCN5CCOCC5)CSc5ccccc5)c(S(=O)(=O)C(F)(F)F)c4)cc3)CC2)C1 + Cc1cc(N2CCOCC2)cc2[nH]c(-c3c(NC[C@@H](O)c4cccc(Cl)c4)cc[nH]c3=O)nc12 [BMS536924] (first compound 0.4 µM, partner dose 0.2 µM) | 544%
CC(=O)O[C@@]12CO[C@@H]1C[C@H](O)[C@@]1(C)C(=O)[C@H](O)C3=C(C)[C@@H](OC(=O)[C@H](O)[C@@H](NC(=O)OC(C)(C)C)c4ccccc4)C[C@@](O)([C@@H](OC(=O)c4ccccc4)[C@H]21)C3(C)C [Docetaxel] + Cc1ccc(NC(=O)c2cccc(N(C)C)c2)cc1NC(=O)c1ccc(O)cc1 [ZM336372] (first compound 0.0001 µM, partner dose 2 µM) | 75.8%
